{"sequences": {"note": "By UniProt entry, the sequences of proteins in these tests, tags left out. Where a name states a change or a piece, a line headed by the entry shows the natural chain unless it says otherwise. Residues count along the entry.", "UniProt O95639, 33-170, stated change not applied": "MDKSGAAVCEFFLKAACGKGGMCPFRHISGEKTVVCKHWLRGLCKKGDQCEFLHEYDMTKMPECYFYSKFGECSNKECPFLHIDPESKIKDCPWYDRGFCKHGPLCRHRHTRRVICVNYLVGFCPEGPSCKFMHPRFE"}, "source": "paper doi:10.1101/209809", "about": "(bioRxiv, 2017)", "target": "CPSF-160–WDR33 binary complex (human, UniProt Q10570 1-1443; Q9C0J8 1-572)", "experiment": "SEC", "note": "Results are given in words; binding and its absence hold for the method and conditions named."}
{"substance": "CPSF-30 deletion mutant (residues 33-170) (from UniProt O95639 33-170) (domain or fragment)", "values": [{"measurement": "binding", "value": "no binding"}]}
